The supplement of paper PMC10849652
Some of the results follow. Residues, ends and D or L forms follow the SMILES beside them. *: point of attachment. Cbz = O=C(OCc1ccccc1)*

By UniProt entry, the sequences of proteins in these tests, tags left out. Where a name states a change or a piece, a line headed by the entry shows the natural chain unless it says otherwise.
UniProt P49773: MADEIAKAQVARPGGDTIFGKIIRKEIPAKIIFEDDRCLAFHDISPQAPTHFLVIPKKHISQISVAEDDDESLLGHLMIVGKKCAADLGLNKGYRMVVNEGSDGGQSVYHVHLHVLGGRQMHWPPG
UniProt Q99729: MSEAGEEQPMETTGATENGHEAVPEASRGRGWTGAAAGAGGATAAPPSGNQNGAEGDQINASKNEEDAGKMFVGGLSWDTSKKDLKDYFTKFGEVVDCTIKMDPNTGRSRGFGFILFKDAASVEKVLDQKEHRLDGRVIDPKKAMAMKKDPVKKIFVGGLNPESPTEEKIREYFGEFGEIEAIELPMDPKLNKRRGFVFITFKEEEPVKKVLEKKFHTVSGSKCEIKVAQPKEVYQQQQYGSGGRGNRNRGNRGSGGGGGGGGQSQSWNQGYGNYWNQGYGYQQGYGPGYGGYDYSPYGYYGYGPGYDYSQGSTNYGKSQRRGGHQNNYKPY
UniProt P07910: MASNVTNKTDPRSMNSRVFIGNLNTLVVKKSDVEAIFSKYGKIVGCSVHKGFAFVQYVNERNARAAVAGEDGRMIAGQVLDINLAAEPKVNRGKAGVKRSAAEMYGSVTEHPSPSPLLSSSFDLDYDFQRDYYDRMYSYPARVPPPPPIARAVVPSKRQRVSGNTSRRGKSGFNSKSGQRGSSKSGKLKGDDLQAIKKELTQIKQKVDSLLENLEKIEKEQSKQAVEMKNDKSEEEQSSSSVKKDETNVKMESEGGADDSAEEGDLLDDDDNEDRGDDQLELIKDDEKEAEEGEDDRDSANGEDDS
UniProt P51659: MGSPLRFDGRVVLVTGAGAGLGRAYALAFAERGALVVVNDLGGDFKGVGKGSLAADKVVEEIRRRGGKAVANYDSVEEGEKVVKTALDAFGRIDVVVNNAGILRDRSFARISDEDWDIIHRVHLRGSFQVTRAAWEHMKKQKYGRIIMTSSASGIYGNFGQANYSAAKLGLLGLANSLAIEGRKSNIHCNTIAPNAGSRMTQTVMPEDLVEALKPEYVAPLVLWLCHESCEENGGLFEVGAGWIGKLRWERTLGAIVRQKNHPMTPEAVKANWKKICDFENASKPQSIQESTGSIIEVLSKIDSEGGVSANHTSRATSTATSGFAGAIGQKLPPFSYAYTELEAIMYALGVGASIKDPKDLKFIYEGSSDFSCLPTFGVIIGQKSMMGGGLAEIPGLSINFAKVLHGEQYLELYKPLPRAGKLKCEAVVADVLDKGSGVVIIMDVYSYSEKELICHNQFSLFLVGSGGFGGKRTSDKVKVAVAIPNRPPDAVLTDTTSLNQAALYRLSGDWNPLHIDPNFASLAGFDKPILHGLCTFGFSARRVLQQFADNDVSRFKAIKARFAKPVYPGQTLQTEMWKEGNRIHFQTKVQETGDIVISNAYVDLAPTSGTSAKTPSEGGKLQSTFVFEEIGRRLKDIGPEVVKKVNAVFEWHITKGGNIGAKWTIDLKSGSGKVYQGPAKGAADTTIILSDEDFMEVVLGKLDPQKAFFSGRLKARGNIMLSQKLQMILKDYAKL
UniProt P23327: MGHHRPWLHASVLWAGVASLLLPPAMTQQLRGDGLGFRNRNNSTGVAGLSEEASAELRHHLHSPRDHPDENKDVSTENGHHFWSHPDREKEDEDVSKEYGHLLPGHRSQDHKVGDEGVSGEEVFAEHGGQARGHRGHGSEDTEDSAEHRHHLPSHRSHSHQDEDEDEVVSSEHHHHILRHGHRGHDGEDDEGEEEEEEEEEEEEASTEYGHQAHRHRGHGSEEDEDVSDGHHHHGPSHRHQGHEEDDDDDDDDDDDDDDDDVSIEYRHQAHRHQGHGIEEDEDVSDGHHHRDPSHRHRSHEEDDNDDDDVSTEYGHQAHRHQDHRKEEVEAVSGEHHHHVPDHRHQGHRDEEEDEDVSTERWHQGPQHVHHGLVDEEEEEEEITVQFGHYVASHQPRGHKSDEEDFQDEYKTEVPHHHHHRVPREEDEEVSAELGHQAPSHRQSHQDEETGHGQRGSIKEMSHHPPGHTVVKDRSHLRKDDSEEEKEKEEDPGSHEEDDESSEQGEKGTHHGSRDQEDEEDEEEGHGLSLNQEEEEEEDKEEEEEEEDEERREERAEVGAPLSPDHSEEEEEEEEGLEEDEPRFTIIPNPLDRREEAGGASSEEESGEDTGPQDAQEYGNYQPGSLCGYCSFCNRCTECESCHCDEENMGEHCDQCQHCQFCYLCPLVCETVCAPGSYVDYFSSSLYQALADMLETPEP
UniProt H0YH80: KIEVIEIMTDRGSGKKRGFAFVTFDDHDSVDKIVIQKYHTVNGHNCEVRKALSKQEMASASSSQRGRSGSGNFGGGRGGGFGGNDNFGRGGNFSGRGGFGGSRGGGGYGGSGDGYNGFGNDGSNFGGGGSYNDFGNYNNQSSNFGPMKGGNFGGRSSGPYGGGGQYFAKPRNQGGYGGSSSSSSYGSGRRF
UniProt P13747, whole entry, looked up: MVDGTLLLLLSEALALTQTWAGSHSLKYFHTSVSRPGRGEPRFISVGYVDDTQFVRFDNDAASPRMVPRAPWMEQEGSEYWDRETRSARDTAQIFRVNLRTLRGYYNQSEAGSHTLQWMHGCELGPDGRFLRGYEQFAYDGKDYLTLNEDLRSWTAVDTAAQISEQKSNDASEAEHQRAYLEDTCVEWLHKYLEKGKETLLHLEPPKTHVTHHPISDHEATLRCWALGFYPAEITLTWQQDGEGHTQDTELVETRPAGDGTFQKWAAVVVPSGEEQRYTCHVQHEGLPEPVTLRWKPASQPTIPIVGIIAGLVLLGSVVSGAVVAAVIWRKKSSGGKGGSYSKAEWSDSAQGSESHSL
UniProt P05114: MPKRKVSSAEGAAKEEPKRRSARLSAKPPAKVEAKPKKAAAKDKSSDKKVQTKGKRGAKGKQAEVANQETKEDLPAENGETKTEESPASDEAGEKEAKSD
UniProt O75146: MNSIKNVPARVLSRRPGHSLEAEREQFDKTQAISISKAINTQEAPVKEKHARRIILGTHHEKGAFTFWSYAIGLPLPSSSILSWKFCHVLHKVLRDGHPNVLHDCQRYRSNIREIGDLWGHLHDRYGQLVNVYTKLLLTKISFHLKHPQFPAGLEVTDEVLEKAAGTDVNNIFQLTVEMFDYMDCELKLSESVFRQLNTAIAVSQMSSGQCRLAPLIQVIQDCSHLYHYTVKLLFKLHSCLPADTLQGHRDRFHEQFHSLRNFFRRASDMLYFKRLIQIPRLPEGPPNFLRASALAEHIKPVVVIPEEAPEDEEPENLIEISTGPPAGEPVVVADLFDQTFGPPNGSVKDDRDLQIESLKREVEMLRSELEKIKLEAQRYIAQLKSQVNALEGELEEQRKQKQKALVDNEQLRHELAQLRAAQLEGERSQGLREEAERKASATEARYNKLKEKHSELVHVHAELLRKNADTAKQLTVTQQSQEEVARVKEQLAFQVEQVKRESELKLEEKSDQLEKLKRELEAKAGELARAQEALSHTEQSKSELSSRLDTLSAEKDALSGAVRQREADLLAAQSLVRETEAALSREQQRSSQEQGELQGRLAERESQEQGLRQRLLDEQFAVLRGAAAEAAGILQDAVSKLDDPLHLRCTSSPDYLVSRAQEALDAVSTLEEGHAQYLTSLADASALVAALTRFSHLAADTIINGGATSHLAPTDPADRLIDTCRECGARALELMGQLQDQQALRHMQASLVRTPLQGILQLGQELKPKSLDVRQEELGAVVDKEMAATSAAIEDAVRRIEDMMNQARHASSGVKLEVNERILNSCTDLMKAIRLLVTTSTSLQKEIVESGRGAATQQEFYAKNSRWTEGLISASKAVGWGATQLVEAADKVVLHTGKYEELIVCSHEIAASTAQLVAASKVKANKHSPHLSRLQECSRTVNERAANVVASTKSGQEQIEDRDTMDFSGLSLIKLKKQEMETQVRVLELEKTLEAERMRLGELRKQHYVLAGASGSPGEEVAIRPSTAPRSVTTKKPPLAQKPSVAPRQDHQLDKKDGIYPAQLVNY
UniProt Q86YM7: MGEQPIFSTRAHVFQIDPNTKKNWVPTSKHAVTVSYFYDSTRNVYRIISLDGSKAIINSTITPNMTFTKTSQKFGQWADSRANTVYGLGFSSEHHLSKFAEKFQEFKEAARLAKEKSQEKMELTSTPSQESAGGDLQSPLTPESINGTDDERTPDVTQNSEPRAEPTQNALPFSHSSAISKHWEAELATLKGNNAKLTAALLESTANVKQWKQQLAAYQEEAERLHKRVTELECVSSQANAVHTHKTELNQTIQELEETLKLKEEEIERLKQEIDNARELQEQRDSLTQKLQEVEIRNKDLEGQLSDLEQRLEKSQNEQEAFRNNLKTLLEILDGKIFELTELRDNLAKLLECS
UniProt P54652, whole entry, looked up: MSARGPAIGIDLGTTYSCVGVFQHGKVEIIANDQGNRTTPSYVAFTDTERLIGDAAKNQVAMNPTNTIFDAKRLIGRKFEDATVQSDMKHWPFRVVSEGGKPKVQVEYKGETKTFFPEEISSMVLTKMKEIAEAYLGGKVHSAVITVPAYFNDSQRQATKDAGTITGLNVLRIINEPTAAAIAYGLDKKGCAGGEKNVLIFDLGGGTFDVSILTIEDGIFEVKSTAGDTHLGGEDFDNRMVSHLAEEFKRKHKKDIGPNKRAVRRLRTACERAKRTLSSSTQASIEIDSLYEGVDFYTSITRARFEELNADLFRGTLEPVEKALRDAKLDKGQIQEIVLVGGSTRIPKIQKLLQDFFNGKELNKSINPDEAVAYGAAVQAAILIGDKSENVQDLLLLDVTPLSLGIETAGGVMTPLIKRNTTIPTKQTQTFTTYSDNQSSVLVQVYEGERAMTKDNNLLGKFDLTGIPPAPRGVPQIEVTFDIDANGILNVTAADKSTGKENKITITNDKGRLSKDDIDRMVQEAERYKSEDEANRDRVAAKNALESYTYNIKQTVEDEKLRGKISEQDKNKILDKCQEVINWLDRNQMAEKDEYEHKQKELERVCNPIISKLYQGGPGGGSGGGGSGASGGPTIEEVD
UniProt P55795: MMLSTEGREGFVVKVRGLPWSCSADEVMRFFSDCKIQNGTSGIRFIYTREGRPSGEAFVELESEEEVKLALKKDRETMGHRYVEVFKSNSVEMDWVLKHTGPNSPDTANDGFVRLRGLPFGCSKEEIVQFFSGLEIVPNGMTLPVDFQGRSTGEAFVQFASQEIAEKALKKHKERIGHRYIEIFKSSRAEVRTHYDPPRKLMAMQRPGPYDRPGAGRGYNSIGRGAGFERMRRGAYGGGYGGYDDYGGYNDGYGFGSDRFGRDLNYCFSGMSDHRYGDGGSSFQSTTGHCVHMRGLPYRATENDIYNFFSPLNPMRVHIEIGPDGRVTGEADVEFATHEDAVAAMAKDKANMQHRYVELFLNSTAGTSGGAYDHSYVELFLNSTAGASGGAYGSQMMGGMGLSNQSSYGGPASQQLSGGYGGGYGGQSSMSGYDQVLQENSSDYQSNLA
UniProt Q8TB92: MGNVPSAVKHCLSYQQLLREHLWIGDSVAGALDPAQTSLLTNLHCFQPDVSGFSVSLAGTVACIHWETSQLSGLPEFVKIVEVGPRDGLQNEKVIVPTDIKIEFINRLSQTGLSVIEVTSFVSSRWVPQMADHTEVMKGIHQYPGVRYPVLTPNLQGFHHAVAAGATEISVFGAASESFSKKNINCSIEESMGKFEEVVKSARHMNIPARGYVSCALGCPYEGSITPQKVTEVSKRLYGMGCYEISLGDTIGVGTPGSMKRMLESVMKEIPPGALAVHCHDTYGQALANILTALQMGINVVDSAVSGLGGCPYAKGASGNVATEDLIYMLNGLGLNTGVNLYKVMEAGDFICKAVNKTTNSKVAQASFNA
UniProt Q8TCT9: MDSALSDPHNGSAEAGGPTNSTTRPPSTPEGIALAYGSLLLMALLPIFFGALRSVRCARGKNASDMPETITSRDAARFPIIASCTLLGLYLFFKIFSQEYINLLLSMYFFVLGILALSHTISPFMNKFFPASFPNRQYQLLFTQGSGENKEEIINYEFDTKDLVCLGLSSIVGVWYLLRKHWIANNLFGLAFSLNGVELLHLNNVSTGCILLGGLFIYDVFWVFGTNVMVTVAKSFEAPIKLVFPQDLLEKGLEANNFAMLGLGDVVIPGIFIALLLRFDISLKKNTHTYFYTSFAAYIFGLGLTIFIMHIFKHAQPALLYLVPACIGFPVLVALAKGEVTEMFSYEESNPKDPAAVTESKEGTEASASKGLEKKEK
UniProt Q9NP66: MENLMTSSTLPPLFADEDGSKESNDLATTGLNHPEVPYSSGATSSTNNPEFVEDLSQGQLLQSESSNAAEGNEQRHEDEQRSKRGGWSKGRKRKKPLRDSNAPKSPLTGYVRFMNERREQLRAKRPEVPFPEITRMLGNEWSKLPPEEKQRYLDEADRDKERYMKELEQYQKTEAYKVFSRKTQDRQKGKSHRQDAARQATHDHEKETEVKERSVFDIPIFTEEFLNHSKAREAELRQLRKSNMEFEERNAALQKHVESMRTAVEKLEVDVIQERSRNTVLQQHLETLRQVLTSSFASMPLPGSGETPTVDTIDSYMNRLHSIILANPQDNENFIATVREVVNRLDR

Key:
Test in all cases: log2 fold change, soluble protein after heating vs DMSO (PISA); higher = thermal stabilisation; K562 cells, 10 uM, 30 min; active = over 0.2 and 3.5 SD of the protein, either way, in both replicates (recomputed)
IRAK-1-4 Inhibitor I = compound: C1COCCN1CCN2C3=CC=CC=C3N=C2NC(=O)C4=CC(=CC=C4)[N+](=O)[O-] [IRAK-1-4 Inhibitor I]
Procedure, shortened: (§1)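 Soluble protein was defined as the supernatant after 21,000xg for 90 min. It came from K562 cells at 2×10^6 cells/mL given 10 μM compound for 30 min, heated in aliquots for 3 min across 48°C-58°C, pooled, and extracted in PBS with 0.5% NP-40 at 4°C, and was quantified by TMTpro 16plex LC-MS/MS with equalised channel sums. Thermal stability against control samples, from duplicates, is reported as log2 fold change.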

ibrutinib = compound: C=CC(=O)N1CCC[C@@H](n2nc(-c3ccc(Oc4ccccc4)cc3)c3c(N)ncnc32)C1 [ibrutinib]
Procedure, shortened: as §1

[1] = compound: CC(=O)c1cnc2ccc(-c3cc(Cl)c(O)c(Cl)c3)nc2c1N[C@H]1CC[C@H](CN(C)C)CC1
Procedure, shortened: as §1

ralimetinib = compound: CC(C)(C)Cn1c(N)nc2ccc(-c3[nH]c(C(C)(C)C)nc3-c3ccc(F)cc3)nc21 [ralimetinib]
Procedure, shortened: as §1

[2] = compound: CC(C)(O)CC(=O)NCCn1ccc2ncnc(Nc3ccc(Oc4cccc(C(F)(F)F)c4)c(Cl)c3)c21
Procedure, shortened: as §1

[3] = compound: CC(C)C1=C2N=C(C=C(N2N=C1)NCC3=CC=CC=C3)NCCCCCCN
Procedure, shortened: as §1

[4] = compound: CC(C)C[C@@H](C=O)NC(=O)[C@H](CC(C)C)NC(=O)[C@H](CC(C)C)NC(=O)OCc1ccccc1
Procedure, shortened: as §1

pinometostat = compound: CC(C)N(C[C@H]1O[C@@H](n2cnc3c(N)ncnc32)[C@H](O)[C@@H]1O)[C@H]1C[C@@H](CCc2nc3cc(C(C)(C)C)ccc3[nH]2)C1 [pinometostat]
Procedure, shortened: as §1

[5] = compound: CC1=C(C2=C(C=C1)C(=O)C3=CC=CC=C3N2CCCN)C
Procedure, shortened: as §1

[6] = compound: CC1=C(C(CC(=O)N1)C2=CC=C(C=C2)C(F)(F)F)C(=O)NC3=C(C=C4C(=C3)C=NN4)F
Procedure, shortened: as §1

Measured: log2 fold change

HMGN2 (UniProt P05204)
active: [5] 0.401
inactive: IRAK-1-4 Inhibitor I -0.034 | ibrutinib -0.009 | [1] 0.121 | ralimetinib -0.024 | [2] 0.29 | [3] 0.128 | [4] 0.093 | pinometostat -0.074

HINT1 (UniProt P49773)
inactive: IRAK-1-4 Inhibitor I 0.022 | ibrutinib 0.041 | [1] 0.02 | ralimetinib -0.074 | [2] -0.109 | [3] 0.045 | [4] -0.002 | pinometostat -0.055 | [6] 0.057 | [5] 0.159

HNRNPAB isoform 3 (UniProt Q99729)
inactive: IRAK-1-4 Inhibitor I -0.056 | ibrutinib 0.027 | [1] 0.099 | ralimetinib 0.026 | [2] 0.115 | [3] 0.169 | [4] 0.04 | pinometostat 0.036 | [6] 0.009 | [5] -0.037

HNRNPDL (UniProt O14979)
inactive: IRAK-1-4 Inhibitor I -0.122 | ibrutinib 0.041 | [1] 0.119 | ralimetinib 0.052 | [2] 0.101 | [3] 0.124 | [4] 0.046 | pinometostat 0.063 | [6] 0.069 | [5] -0.073

HNRNPC isoform 2 (UniProt P07910)
inactive: IRAK-1-4 Inhibitor I -0.332 | ibrutinib 0.043 | [1] -0.365 | ralimetinib 0.106 | [2] 0.195 | [3] -0.197 | [4] 0.281 | pinometostat 0.238 | [5] -0.629

HSD17B4 (UniProt P51659)
inactive: IRAK-1-4 Inhibitor I 0 | ibrutinib 0 | [1] -0.014 | ralimetinib -0.007 | [2] 0.036 | [3] 0.069 | [4] 0.005 | pinometostat 0.002 | [6] -0.006 | [5] 0.037

HNRNPH1 (UniProt P31943)
inactive: IRAK-1-4 Inhibitor I -0.032 | ibrutinib 0.048 | [1] -0.176 | ralimetinib -0.018 | [2] 0 | [4] 0.131 | pinometostat 0.031 | [5] -0.045
active: [3] -0.427

HSP90AA1 isoform 2 (UniProt P07900)
inactive: IRAK-1-4 Inhibitor I 0.049 | ibrutinib -0.05 | [1] 0.034 | ralimetinib 0.034 | [2] -0.049 | [3] -0.041 | [4] -0.006 | pinometostat -0.039 | [6] -0.036 | [5] -0.029

HRC (UniProt P23327)
inactive: IRAK-1-4 Inhibitor I 0.002 | ibrutinib 0.003 | [1] 0.041 | ralimetinib -0.039 | [2] 0.132 | [3] 0.074 | [4] 0.011 | pinometostat 0.019 | [5] -0.033

HNRNPM (UniProt P52272)
inactive: IRAK-1-4 Inhibitor I -0.156 | ibrutinib 0.004 | [1] -0.003 | ralimetinib 0.16 | [2] -0.001 | [3] -0.18 | [4] 0.231 | pinometostat 0.308 | [6] -0.009 | [5] -0.009

IBTK (UniProt Q9P2D0)
inactive: IRAK-1-4 Inhibitor I -0.149 | ibrutinib -0.08 | [1] -0.004 | ralimetinib 0.073 | [2] 0.087 | [4] 0.057 | pinometostat 0.33 | [6] 0.114 | [5] 0.027

HNRNPA1 (UniProt H0YH80)
inactive: IRAK-1-4 Inhibitor I -0.073 | ibrutinib 0.073 | [1] 0.043 | ralimetinib 0.185 | [2] 0.272 | [4] 0.024 | pinometostat 0.345 | [6] 0.014 | [5] -0.655

HIST2H2BF isoform 2 (UniProt Q5QNW6)
inactive: IRAK-1-4 Inhibitor I -0.165 | ibrutinib 0.148 | [1] -0.054 | ralimetinib 0.162 | [2] 0 | [3] -0.047 | [4] 0.226 | pinometostat 0.422 | [5] 0.601

HLA-E (UniProt P13747)
inactive: IRAK-1-4 Inhibitor I -0.074 | ibrutinib 0.134 | [1] -0.02 | [2] 0.025 | pinometostat 0.076 | [5] -0.139

HMGN1 (UniProt P05114)
active: [5] 0.294
inactive: IRAK-1-4 Inhibitor I -0.006 | ibrutinib 0.049 | [1] 0.064 | ralimetinib 0.032 | [2] 0.166 | [3] 0.148 | [4] 0.042 | pinometostat -0.022

ICAM1 (UniProt P05362)
inactive: IRAK-1-4 Inhibitor I 0.056 | ibrutinib 0.042 | [1] -0.039 | ralimetinib -0.02 | [2] 0.002 | [3] 0.157 | [4] -0.001 | pinometostat -0.009 | [5] 0.045

HIP1R (UniProt O75146)
inactive: IRAK-1-4 Inhibitor I 0.029 | ibrutinib -0.027 | [1] -0.022 | ralimetinib 0.01 | [2] -0.034 | [3] -0.059 | [4] -0.003 | pinometostat 0 | [5] 0.138

HSP90AB4P (UniProt Q58FF6)
inactive: IRAK-1-4 Inhibitor I 0.016 | ibrutinib -0.129 | [1] -0.053 | [2] 0.02 | [3] 0.018 | pinometostat -0.026 | [6] 0.025 | [5] 0.086

HOMER1 (UniProt Q86YM7)
inactive: IRAK-1-4 Inhibitor I 0.104 | ibrutinib 0.009 | [1] -0.043 | ralimetinib 0.004 | [2] 0.03 | [3] 0.034 | [4] -0.088 | [5] 0.093
active: pinometostat -0.225

HSPA2 (UniProt P54652)
active: [3] -0.441
inactive: IRAK-1-4 Inhibitor I 0.008 | ibrutinib -0.006 | [1] -0.28 | ralimetinib 0.01 | [4] 0.041 | pinometostat 0.05

HNRNPH2 (UniProt P55795)
inactive: IRAK-1-4 Inhibitor I -0.081 | ibrutinib -0.024 | [1] -0.134 | ralimetinib 0.137 | [2] -0.067 | [4] 0.124 | pinometostat 0 | [5] -0.104
active: [3] -0.345

HUWE1, A0A087X1S3
inactive: IRAK-1-4 Inhibitor I -0.093 | ibrutinib -0.031 | [2] 0.026 | [3] -0.141 | pinometostat 0.042 | [5] -0.083

HMGCLL1 (UniProt Q8TB92)
inactive: IRAK-1-4 Inhibitor I 0.118 | ibrutinib 0.094 | [1] 0.022 | [2] -0.041 | [3] -0.026 | pinometostat 0.074 | [6] -0.015 | [5] 0.087

HM13 (UniProt Q8TCT9)
inactive: IRAK-1-4 Inhibitor I 0.052 | ibrutinib -0.032 | [1] 0.005 | ralimetinib -0.034 | [2] -0.004 | [4] -0.02 | pinometostat 0.007 | [6] 0.028 | [5] -0.043

HNRNPUL2 (UniProt Q1KMD3)
inactive: IRAK-1-4 Inhibitor I -0.033 | ibrutinib -0.022 | [1] -0.014 | ralimetinib -0.033 | [2] 0.024 | [3] 0.117 | [4] 0.054 | pinometostat 0.107 | [5] 0.023

2 successive records out of the list so far, quoted:
HMGCLL1 (UniProt Q8TB92)
inactive: IRAK-1-4 Inhibitor I 0.118 | ibrutinib 0.094 | [1] 0.022 | [2] -0.041 | [3] -0.026 | pinometostat 0.074 | [6] -0.015 | [5] 0.087

HM13 (UniProt Q8TCT9)
inactive: IRAK-1-4 Inhibitor I 0.052 | ibrutinib -0.032 | [1] 0.005 | ralimetinib -0.034 | [2] -0.004 | [4] -0.02 | pinometostat 0.007 | [6] 0.028 | [5] -0.043

Continued.

HMG20A (UniProt Q9NP66)
inactive: IRAK-1-4 Inhibitor I -0.05 | ibrutinib 0.043 | [1] -0.015 | ralimetinib 0.275 | [2] 0.062 | [3] 0.043 | [4] -0.405 | pinometostat 0.026 | [5] 0.007

HSPA8 (UniProt P11142)
inactive: IRAK-1-4 Inhibitor I 0.032 | ibrutinib -0.015 | [1] 0.014 | ralimetinib -0.004 | [2] 0.029 | [3] 0.037 | [4] -0.013 | pinometostat -0.023 | [5] -0.016

HNRNPF (UniProt P52597)
active: [3] -0.279
inactive: IRAK-1-4 Inhibitor I -0.143 | ibrutinib -0.023 | [1] -0.1 | ralimetinib 0.098 | [2] -0.086 | [4] 0.069 | pinometostat 0.018 | [5] -0.087

HIP1 (UniProt O00291)
inactive: IRAK-1-4 Inhibitor I -0.002 | ibrutinib 0.083 | [1] -0.07 | ralimetinib -0.003 | [2] -0.035 | [3] -0.056 | [4] 0.079 | pinometostat 0.045 | [5] 0.038

HSD17B12 (UniProt Q53GQ0)
active: [2] 0.289
inactive: IRAK-1-4 Inhibitor I -0.01 | ibrutinib 0.038 | [1] -0.127 | ralimetinib -0.037 | [3] 0.22 | [4] -0.062 | pinometostat -0.064 | [5] 0.031

HNRNPK isoform 3 (UniProt P61978)
inactive: IRAK-1-4 Inhibitor I -0.011 | ibrutinib -0.001 | ralimetinib 0.03 | [2] 0.087 | [3] 0.075 | [4] 0.041 | pinometostat -0.021 | [5] 0.21
